In PubChem BioAssay AID2685 (National Center for Advancing Translational Sciences (NCATS), 2010):
Some of the results follow. Shown are side measurements of this screen, not its main read-out; they come without a call. The list favours compounds with an active or inconclusive main result. Potencies come from curve fits of mixed quality, noted in brackets.

Experiment: qHTS Assay for Lipid Storage Modulators in Drosophila S3 Cells;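 for cell number change: cells counted by Cell Tracker Red CMTPX staining in the red channel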
Conditions: BODIPY lipid droplet fluorescence, 18-24 h; for cell number change: measured here: cell count max response, cells fed with added oleic acid
Method in brief: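 Laser-scanning cytometry quantifies lipid droplet accumulation (500–530 nm total intensity; droplet/cell object ratio) in oleic acid-fed (400 uM added) Drosophila S3 cells treated with a concentration series. 20 uM Triacsin C defined 100% inhibition.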

[1] = measured here: cell number channel AC50, cells fed with added oleic acid
[2] = measured here: lipid fluorescence (Fed channel) AC50, cells fed with added oleic acid

SMILES	cell number change [%]	AC50 [1]	AC50 [2]
COc1ccc(N2CCN(C(CNC(=O)C(=O)NCc3ccncc3)c3ccco3)CC2)cc1 (stereo not given)	-58.9	1.64 µM [falling, partial curve]	–
CCN(C(C)=O)c1nc(CCl)cs1	-25.4	–	29.1 µM [falling, single point]
O=C(c1ccccc1)N1CCN(C(=S)NCc2ccco2)CC1	45.3	29.1 µM [rising, single point]	–
CC1CC(C)CN(C(=O)c2ccc(CSc3nc4ccncc4[nH]3)cc2)C1 (stereo not given)	23.5	–	18.4 µM [rising, single point]
OCCNCc1cc(Br)ccc1OCc1ccc(Cl)cc1Cl	-54.9	29.1 µM [falling, single point]	29.1 µM [falling, single point]
CC(CCc1ccccc1)NC(=O)c1ccccc1C(=O)O (stereo not given)	-35.5	0.00411 µM [falling, full curve, poor fit]	29.1 µM [falling, single point]
CCCOc1ccc(C2=CSC3=NCCN23)cc1[N+](=O)[O-]	27.2	–	13 µM [rising, partial curve]
CCc1cc2c(-c3ccccc3)cc(=O)oc2c(CN2CCOCC2)c1O	-5.65	–	0.116 µM [rising, full curve, poor fit]
Nc1nc2ccc(C(=O)N3CCCCC3)cc2s1	-6.41	–	6.51 µM [falling, partial curve, poor fit]
COc1ccc(C(=O)C2CCCN(C(=O)C3CCOCC3)C2)cc1OC (stereo not given)	21.4	–	6.51 µM [falling, single point]
CCOC(=O)N1CN(C(=O)OCC)CN(C(=O)OCC)C1	5.62	–	11.6 µM [rising, partial curve]
CCc1ccc(CN(C)Cc2nc(COc3ccccc3)no2)nc1	17.9	–	0.00461 µM [rising, full curve, poor fit]
CCOc1ccc(NC(=O)Cn2nnc(C(=O)NCc3ccc4c(c3)OCO4)c2N)cc1	17.3	–	29.1 µM [rising, single point]
N#CCOc1coc(CN2CCN(c3cccc(Cl)c3)CC2)cc1=O	11.3	–	–
COC(=O)c1cc(NC(=O)CN2CCc3cc4c(cc3C2)OCCCO4)cc(C(=O)OC)c1	-35	29.1 µM [falling, single point]	18.4 µM [falling, partial curve]
Cc1cccc(N2C(=O)SC(N(C)c3ccccc3)C2=O)c1 (stereo not given)	-1.43	–	–
O=C(CC1C(=O)NCCN1C(=O)c1ccc(F)cc1)OCc1ccccc1 (stereo not given)	5.75	–	–
CCCCCn1c(CN2CCN(CCO)CC2)nc2c1c(=O)n(C)c(=O)n2C	-79.2	29.1 µM [falling, single point]	–
FC(F)(F)c1ccc(Nc2nnnc3ccccc23)cc1	24.9	–	0.00461 µM [falling, full curve, poor fit]
COc1cccc(OC)c1OCCOc1ccc(C(=O)c2ccccc2)cc1	-17.5	–	11.6 µM [rising, partial curve]

Three of these compounds, set out differently.
SMILES,cell number change [%],AC50 [1],AC50 [2]
CCc1ccc(CN(C)Cc2nc(COc3ccccc3)no2)nc1,17.9,–,"0.00461 µM [rising, full curve, poor fit]"
CCOc1ccc(NC(=O)Cn2nnc(C(=O)NCc3ccc4c(c3)OCO4)c2N)cc1,17.3,–,"29.1 µM [rising, single point]"
N#CCOc1coc(CN2CCN(c3cccc(Cl)c3)CC2)cc1=O,11.3,–,–

The list continues.

SMILES	cell number change [%]	AC50 [1]	AC50 [2]
Cc1ccccc1NC(=O)C(=Cc1ccc(C(=O)O)cc1)C(=O)Nc1ccccc1C	–	5.17 µM [rising, single point]	–
Cc1nnc(NC(=O)CSc2nc(C3CCCCC3)nc3ccccc23)s1	61.1	11.6 µM [rising, partial curve]	20.6 µM [rising, partial curve]
CSc1ncc(Cl)c(C(=O)NCc2ccc3c(c2)OCO3)n1	-33.2	20.6 µM [falling, single point]	–
COc1cc(-c2c(C#N)c(N)nc(SCc3ccncc3)c2C#N)cc(OC)c1OC	-23	–	3.66 µM [rising, single point]
CC(C)(C)N=C(NS(=O)(=O)c1cccs1)c1ccccc1	-5.25	–	3.26 µM [rising, full curve]
O=C(COc1ccc(Cl)cc1Cl)Nc1ccccn1	-39.2	9.2 µM [falling, partial curve]	0.291 µM [falling, single point]
COc1cccc(NS(=O)(=O)c2cc3c(cc2C)N(C(C)=O)CCO3)c1	17.9	–	–
Cc1cc(C)cc(NC(=O)c2cnn(-c3ccccc3)c2C2CCNCC2)c1	-44.5	5.17 µM [falling, partial curve]	–
COCc1[nH]nc2c1C1(CCSCC1)C(C#N)=C(N)O2	-5.08	–	25.9 µM [falling, partial curve]
COc1ccc(OCc2cc(C(=O)N(C)C3CCOCC3)no2)c2ccccc12	-13	4.61 µM [rising, single point]	5.17 µM [rising, single point]
COc1ccc(NC(=O)C(Cc2ccccc2)NC(=O)c2ccco2)cc1OC (stereo not given)	14.6	–	0.184 µM [rising, full curve, poor fit]
O=C(COc1ccccc1F)N1CCc2ccccc2C1	13.6	–	0.82 µM [rising, single point]
CC(C)(C)C(=O)Nc1nnc(SCc2ccc(F)cc2)s1	-14.6	–	0.58 µM [falling, full curve, poor fit]
Cc1c(Cl)cccc1NC(=O)Cn1c(CCC(=O)O)ccc1-c1ccc(Cl)cc1	7.62	–	29.1 µM [falling, single point]
COC(=O)c1ccc(CN2CCC(CO)(CCOc3ccccc3)CC2)cc1	-2.05	–	1.46 µM [rising, partial curve]
O=C(Nc1ncc(C(F)(F)F)cc1Cl)C1COc2ccccc2O1 (stereo not given)	-4.6	–	0.651 µM [falling, single point]
O=C(O)CCC(=O)Nc1ccc(S(=O)(=O)Nc2nccs2)cc1	-7.08	–	6.51 µM [falling, single point]
COc1ccc2nc(/C=N/NC(=O)[C@H](C)NC(=O)OC(C)(C)C)ccc2c1	-40.8	3.66 µM [falling, full curve, poor fit]	–
COc1ccc(C(=O)NC(=S)NCc2ccccc2)cc1OC	21	2.06 µM [falling, partial curve]	3.66 µM [falling, single point]
